PubChem BioAssay AID1259424 – University of Nebraska Medical Center, 2018
Shown is a random part of about 14,000 reagents. 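Higher correlation or smaller distance means closer resemblance to KSR1 loss; control wells, including KSR1 knockdowns, recur on many plates.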 Not all columns of the deposit are shown. No sequences are given here. Not given: the time to read-out.

Screen: 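Find knockdowns that reproduce the expression shifts seen after KSR1 loss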 (primary screen)
Cell system: human HCT116 colon cancer cells
Reagent: siRNA pool against human genes, 50 nM
Detection: 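Six signature mRNAs by branched-DNA multiplex assay, scaled to two housekeeping genes and non-targeting median, log2; matched to mean KSR1 knockdown profile by Pearson correlation and euclidean distance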
Reading the numbers: mean correlation with KSR1 profile and KSR1 correlation: higher = expression change more like KSR1 knockdown; mean distance from KSR1 profile: higher = expression change less like KSR1 knockdown

| Target gene | mean correlation with KSR1 profile | mean distance from KSR1 profile | KSR1 correlation, replicate 1 | KSR1 correlation, replicate 2 |
| --- | --- | --- | --- | --- |
| ACAD8 | -0.439 | 1.89 | -0.237 | -0.232 |
| CDK9 | -0.0526 | 2.29 | -0.0695 | 0.00514 |
| FAXC | 0.637 | 3.79 | 0.687 | 0.558 |
| CRYZL1 | 0.247 | 3.55 | 0.182 | 0.195 |
| CHERP | 0.24 | 2.08 | 0.0944 | 0.663 |
| ZNF280C | 0.601 | 2.83 | 0.459 | 0.549 |
| EIF4B | -0.683 | 3.58 | -0.614 | -0.733 |
| COXFA4 | -0.269 | 3.45 | -0.029 | -0.248 |
| LMCD1 | 0.0155 | 1.82 | -0.269 | -0.169 |
| SCARF1 | 0.432 | 1.28 | 0.52 | 0.21 |
| RALGAPB | -0.577 | 2.15 | -0.447 | -0.387 |
| RAD17 | 0.641 | 1.04 | -0.0189 | 0.656 |
| DEGS1 | 0.0784 | 2.77 | 0.172 | 0.426 |
| GJA9 | 0.531 | 1.59 | 0.262 | 0.448 |
| AVEN | -0.198 | 2.85 | 0.287 | -0.345 |
| TMEM167B | 0.142 | 2.62 | 0.28 | 0.278 |
| CA5A | -0.0674 | 2.47 | -0.0403 | -0.022 |
| ACADL | -0.317 | 3.68 | -0.277 | 0.115 |
| COMP | -0.00885 | 1.58 | 0.179 | -0.0974 |
| GPR141 | 0.196 | 2.26 | 0.171 | 0.48 |
| EIF3E | -0.216 | 2.24 | -0.078 | -0.0304 |
| EPHB4 | 0.915 | 1.21 | 0.812 | 0.911 |
| DUX4L8 | 0.327 | 1.96 | 0.0199 | 0.508 |
| APOBR | -0.405 | 2.8 | -0.245 | -0.38 |
| DENND2D | 0.0692 | 2.62 | 0.0318 | 0.0833 |
| ISYNA1 | -0.385 | 3.14 | -0.284 | -0.38 |
| LMAN1 | 0.245 | 1.99 | 0.309 | 0.27 |
| DPYD | 0.0777 | 1.7 | -0.0495 | -0.501 |
| PSMA1 | 0.353 | 4.87 | 0.576 | -0.0173 |
| ADAM11 | -0.784 | 2.06 | -0.661 | -0.639 |
| WARS1 | 0.215 | 2.08 | 0.137 | 0.283 |
| HPN | -0.136 | 2.36 | -0.186 | -0.332 |
| MIOS | -0.278 | 2.93 | -0.0809 | -0.478 |
| TGFBR1 | 0.494 | 1.16 | 0.629 | 0.142 |
| SUGT1P4-STRA6LP-CCDC180 | -0.588 | 1.44 | -0.336 | -0.943 |
| IKBKB | -0.0741 | 4.59 | 0.24 | 0.0662 |
| RAB5IF | -0.553 | 3.43 | -0.599 | -0.524 |
| PRDM5 | 0.355 | 1.28 | 0.176 | 0.458 |
| ESRRB | 0.568 | 1.67 | 0.608 | 0.613 |
| DDX41 | -0.656 | 1.79 | -0.837 | -0.554 |
| CACNG4 | -0.209 | 0.951 | -0.846 | -0.499 |
| ROBO4 | -0.195 | 1.09 | 0.0938 | -0.288 |
| SLC68A1 | -0.227 | 2.61 | -0.0753 | 0 |
| PLA2G2F | -0.102 | 4.03 | -0.087 | -0.183 |
| TP53INP2 | -0.835 | 3.67 | -0.746 | -0.676 |
| UNC93A | -0.219 | 1.59 | -0.168 | -0.32 |
| P4HTM | -0.284 | 2.25 | -0.312 | -0.325 |
| HP1BP3 | -0.441 | 1.95 | -0.399 | -0.488 |
| TSNAXIP1 | -0.00111 | 1.01 | 0.317 | -0.38 |
| NAA35 | -0.663 | 1.92 | -0.76 | -0.56 |

Records above whose target name begins with S or s:
| Target gene | mean correlation with KSR1 profile | mean distance from KSR1 profile | KSR1 correlation, replicate 1 | KSR1 correlation, replicate 2 |
| --- | --- | --- | --- | --- |
| SCARF1 | 0.432 | 1.28 | 0.52 | 0.21 |
| SUGT1P4-STRA6LP-CCDC180 | -0.588 | 1.44 | -0.336 | -0.943 |
| SLC68A1 | -0.227 | 2.61 | -0.0753 | 0 |
